Measured values: paper PMC6966663 (Cancers, 2019)
≈ marks a conversion by molar mass, not a printed value.

How the values were obtained:
[1] = in vivo
Source text: Descriptive statistics were used to summarize demographic data, other baseline characteristics, AEs, safety parameters, and tumor assessment data. […] All subjects who completed the study were included in the evaluation of PD/PK. […] The incidence of treatment-emergent adverse events and drug-related adverse events, respectively, was summarized by treatment in frequency tables using the CTCAE grade.

[2] = 80 mg QD, n = 3
[3] = system: p-AKT
[4] = system: p-PRAS40; conditions: MTD dose level; TRAP-stimulated platelets, relative to baseline, normalized to total PRAS40
[5] = clinical; conditions: human, in vivo, 80 mg, geometric mean (%CV), 80 mg QD single dose, n = 3
[6] = system: p-AKT; experiment: animal or person; conditions: Homo sapiens, read-out: IC50 for p-AKT (clinical PK/PD, plasma concentration)

NC(=O)c1ccc2nc(-c3ccc(C4(N)CCC4)cc3)c(-c3ccccc3)n2n1 [BAY 1125976]
MTD in the QD schedule ([1]; human, po): 80 mg | Dose-limiting toxicity [1]: no dose-limiting toxicity was observed | Increase of AUC after high-fat, high-calorie meal vs fasted [2]: 16% | Reduction of Cmax after high-fat, high-calorie meal vs fasted [2]: 27% | Suppression of p-AKT ([3]; MTD dose level, TRAP-stimulated platelets, relative to baseline, normalized to total AKT): more than 70% | Time of transient maximum inhibition of AKT phosphorylation post-treatment ([3]; both dosing schedules): 4 h | Suppression of p-PRAS40 [4]: more than 30% | Cmax ([5]; fasted condition (C1D1)): 28.8 ng/mL | Cmax ([5]; fed condition (C1D-3)): 21.1 ng/mL | IC50 [6]: ~5 ng/mL (≈ 0.013 µM)
